## Results of single-concentration screens

Measurements from “University of Dundee, Small-Polar-MMV Screening Library” (2021), ChEMBL document CHEMBL3988442.

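Cell assay of Leishmania donovani living inside macrophages; the read-out is not stated. Tested at 30 µM. Direction is inferred from retests: higher values go with stronger inhibition. Of about 69,000 compounds tested this way, about 1,000 (1.5%) reached 50% or more in at least one test.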

Each number is a percent effect as filed.
The record does not define 0% and 100%; most values in the screen are far below 50% and negative numbers occur (in some assays of this library far below -100).
The compounds are a random part of those screened.
Two or more numbers in one place are separate tests of the same structure; such repeats can differ widely.

structure | percent effect
COc1ccc(C(=O)N(CCC#N)Cc2ccccn2)cc1 | 12.39%
O=C(NC1(c2nnn(Cc3ccncc3)n2)CCCC1)c1ccccc1 | 39.21%
COc1cc(CN2CCCC2)ccc1Oc1ncccc1C(F)(F)F | -20.95%
CCCN(CCC)c1ncc(S(=O)(=O)c2ccc(C)cc2)c(N)n1 | 8.268%
N#CC1(NC(=O)c2ccc(F)c(Br)c2)CCSC1 (stereo not shown) | 28.52%
COc1nc2c(cc1C(=O)N1CCCOC(CN3CCCC3)C1)CCC2 (stereo not shown) | 15.85%
O=C(CCc1nc(-c2cccnc2)no1)NCC1CCN(C2CC2)C1 (stereo not shown) | 4.135%
N#CCCCS(=O)(=O)NC1(c2cccc(Cl)c2)CC1 | 17.77%
Cn1ncc2c1C(COCC1CC1)CN(Cc1ccc(F)cc1)C2 (stereo not shown) | -11.28%
CC(C)C(=O)NC1CCN(c2cccc(OC(F)(F)F)c2)C1=O (stereo not shown) | 17.15%
Cc1nc(Nc2ncccn2)cc(C2CCCN2Cc2ncc[nH]2)n1 (stereo not shown) | 18.83% and 10.03%
CCNC(=O)[C@@H]1C[C@@H](NC(=O)c2cc(C)on2)CN1Cc1ccccn1 | -10.11%
Cc1ncsc1CCC(=O)NC1CCN(Cc2cccs2)CC1 | 7.586%
COc1ccc(OCCNC(=O)N2CCS(=O)(=O)CC2)cc1 | -9.098%
CCOCc1cncc2c1CCN(S(=O)(=O)c1ccc(C)cc1)C2 | 6.423%
CC(C)CC(C)N(C)Cc1nnc(-c2ccco2)o1 (stereo not shown) | -15.79%
CN(Cc1cccnc1)C1CC2(CCN(c3ncc(F)cn3)CC2)C1.O=C(O)C(F)(F)F.O=C(O)C(F)(F)F | 5.696%
CCNc1nc(-c2cccnc2)c(-c2ccnc(N3CCOCC3)n2)s1 | 8.702% and 5.668%
[H][C@]12CC[C@]([H])(CN(S(=O)(=O)N(C)C)C1)N(C/C=C/c1ccc(OC)cc1)C2 | 37.37%
Cc1ccc(C(=O)OC(C)Cn2cccn2)c(=O)[nH]1 (stereo not shown) | 9.557%
N#Cc1c(N)nc2c(c1C1CCOC1)CCc1cc(O)ccc1-2 (stereo not shown) | -89.94%
CN(C)C(=O)N1CCC(C2C(=O)Nc3ccccc32)CC1 (stereo not shown) | 19.05%
COCCCNC(=O)Nc1ccc(-n2cncn2)c(C(F)(F)F)c1 | 2.064%
c1ccc(-n2cc(CNC3CCc4ncnn4C3)cn2)cc1 (stereo not shown) | 27.48%
c1nc(N2CCc3[nH]cnc3C2)c2cc[nH]c2n1 | 19.46%
[H][C@@]12COC[C@]1(c1nnc(C3CC3)o1)CN(C(=O)c1ncccn1)C2 | -6.724%
Cc1nn(C)c(C)c1C1CCCN1C(=O)c1ccc(NC2CC2)nc1 (stereo not shown) | 12.01%
O=c1[nH]nc(CNCc2ccc(OC34CCCN(CC3)C4)cc2)[nH]1 (stereo not shown) | 39.69%
Cc1ccc(CC(=O)N2CCc3nnc(N(C)C)cc3C2)cn1 | 26.24%
Brc1ccc(NCc2ccc(Cn3ccnc3)cc2)nc1 | 20.4%
Cc1cc(C2CCC2)nc(N2CCC3(CCNC(=O)CC3)CC2)n1 | -19.5%
CCO[C@@H]1CCN(C(=O)c2ccc[nH]2)[C@@H]1Cc1cccnc1.O=C(O)C(F)(F)F | 28.81%
Cc1cc(C(=O)N2CCCC(n3ccnc3)C2)c(C)n1C1CC1 (stereo not shown) | -15.73%
COCC1CN(Cc2ccsc2)Cc2cnn(C)c21 (stereo not shown) | -8.415%
CNc1oc(-c2ccc(OC)c(S(=O)(=O)N3CCCC3)c2)nc1C#N | 16.63%
Cc1ccsc1C(=O)N1Cc2ncn(C)c2C(COCC2CC2)C1.O=C(O)C(F)(F)F (stereo not shown) | -17.56% and -7.481%
COCCNS(=O)(=O)c1cccc2c1CN(C(=O)c1cc(C)on1)CC2 | -54.75%
CC(=O)N1CCc2cc(Cl)cc(Cl)c2C1 | -3.89%
Cl.c1nc(CCC2CCCCN2)cc(N2CCCC2)n1 (stereo not shown) | 12.72%
c1ccc(Cc2noc(CN3CCc4c(ncn4C4CC4)C3)n2)cc1 | -16.41%
CCOc1ccc(CN(C)C2CCN(c3cc(C)nn3C)C2=O)cc1 (stereo not shown) | 0%
O=C(Cn1ccc2c(Cl)cccc21)N1CCC2(CC1)OCCO2 | 8.433%
CC(C)n1cnc2c1C(C(=O)NCCO)N(Cc1ccccc1)CC2.O=C(O)C(F)(F)F (stereo not shown) | 24.94%
CC(=O)N1CC[C@H](c2nnc(Cc3c[nH]c4ccccc34)o2)C1 | 26.35%
COCC(=O)Nc1ccnn1-c1ccc(Cl)cc1 | 82.71%
CCc1noc(C2CCCCN2C(=O)c2cc(C)n(C)n2)n1 (stereo not shown) | -84.17%
Cc1ccc(-c2nc(C(=O)NCC3CCOC3)cs2)cc1 (stereo not shown) | 30.89%
O=C(NCC(F)(F)F)C(c1cccnc1)N1CCOCC1 (stereo not shown) | 20.37%
O=C(O)C(F)(F)F.[H][C@]12CCN(c3ccc(C)nn3)C[C@@]1([H])CN(Cc1cc[nH]n1)C2 | 13.95%
O=C(Cc1ccsc1)N1CCC(c2ccncc2)CC1 | 0.01258% and -33.69%
CC(C)Nc1nc2c(c(NC3CC3)n1)CN(C(=O)c1ccncc1)CC2 | -6.447%
O=C(COCC1CC1)Nc1cc(S(=O)(=O)NC2CC2)ccc1F | -1.646%
O=C(c1c[nH]c2ccccc2c1=O)N1CCSCC1 | 7.72%
CS(=O)(=O)c1ccccc1NC(=O)N[C@@H]1c2ccccc2C[C@@H]1O | 2.309%
Cc1ccc2nc(C3CCCN(Cc4ccccc4)C3)nc(O)c2c1 (stereo not shown) | -7.336%
O=C(CCN1CCCN(c2nccs2)CC1)NCC1CCCCC1 | -9.759%
COC(=O)CCNC(=O)c1ccc(OCc2ccccc2)nc1 | -0.3941%
COCc1ccc(CNc2cnn(C(C)(C)C)c(=O)c2Cl)cc1 | 43.37%
CS(=O)(=O)N1CCc2ccc(=O)n(CC3CC3)c2CC1 | 8.69% and 1.633%
COc1cccc2c1OCC(Cc1cnc(N)c(C)c1)C2 (stereo not shown) | 24.13%
Cc1cnc(NC(=O)c2cccc(CN(C)Cc3snnc3C)c2)s1 | 27.52%
COCCN(Cc1ccco1)Cc1nc(-c2ccccc2C)no1 | -7.022%
CN(C)Cc1cccc(-c2cccnc2C(=O)NCC2CC2)c1 | 22.44%
CCc1nc(Cn2cncc(Br)c2=O)no1 | 12.93%

8 of the entries, repeated:

structure,percent effect
Cc1cc(C2CCC2)nc(N2CCC3(CCNC(=O)CC3)CC2)n1,-19.5%
CC(C)CC(C)N(C)Cc1nnc(-c2ccco2)o1 (stereo not shown),-15.79%
CN(C)Cc1cccc(-c2cccnc2C(=O)NCC2CC2)c1,22.44%
CNc1oc(-c2ccc(OC)c(S(=O)(=O)N3CCCC3)c2)nc1C#N,16.63%
O=C(Cc1ccsc1)N1CCC(c2ccncc2)CC1,0.01258% and -33.69%
Cc1cc(C(=O)N2CCCC(n3ccnc3)C2)c(C)n1C1CC1 (stereo not shown),-15.73%
Cc1ccc(-c2nc(C(=O)NCC3CCOC3)cs2)cc1 (stereo not shown),30.89%
CS(=O)(=O)N1CCc2ccc(=O)n(CC3CC3)c2CC1,8.69% and 1.633%